According to PubChem BioAssay AID248 (DTP/NCI, 2004):
The list does not hold the whole screen: it gathers tests that were run many times, whatever their T/C, doses with no T/C, and many T/C values between a quarter and a half above the control. Other doses and runs of a compound stand elsewhere. T/C gives the treated animals as a percentage of the vehicle group. Some entries give survivors of the animals treated and no T/C: the source files T/C as zero there, which appears to mark a toxic dose or a test without result, not a measured value. Some doses without a T/C left all or most animals alive at the check, yet need not have been tolerated: survival well below the control is almost never listed, so the zero probably covers shortened survival too. Survivors were counted at the toxicity check, usually on the fifth day, unless a day is given; later deaths do not show. Schedule codes are those of the source, taken here to give the interval after Q, in days (D) or hours (H), and the number of doses after X.

System: L1210 leukemia ip in BDF1 mice, survival T/C
Test: NCI In Vivo Anticancer Drug Screen. Data for tumor model L1210 Leukemia (intraperitoneal) in B6D2F1 (BDF1) mice
Details: T/C endpoint: mean survival time, higher T/C = longer survival

Compound: CCCCCCCCCCCCCC[N+](C)(C)Cc1cc(=O)c(O)co1
- survivor count (dose: 200.0 mg/kg/injection, schedule: Q01DX015 (ip), vehicle: saline): 2 of 6
- survivor count (dose: 200.0 mg/kg/injection, schedule: Q04DX003 (ip), vehicle: Klucel (hydroxypropylcellulose) (HPC)): 1 of 3
- survivor count (dose: 400.0 mg/kg/injection, schedule: Q01DX015 (ip), vehicle: saline): 0 of 6
- survivor count (dose: 400.0 mg/kg/injection, schedule: Q04DX003 (ip), vehicle: Klucel (hydroxypropylcellulose) (HPC)): 0 of 3

Compound: CC(C)NC(=O)CCl
- survivor count (dose: 200.0 mg/kg/injection, schedule: Q04DX003 (ip), vehicle: saline): 5 of 6
- survivor count (dose: 400.0 mg/kg/injection, schedule: Q04DX003 (ip), vehicle: saline): 0 of 6

Compound: CCOP(=O)(OCC)OC(=C(Cl)Cl)C(Cl)(Cl)Cl
- survivor count (dose: 400.0 mg/kg/injection, schedule: Q04DX002 (ip), vehicle: saline with Tween-80): 0 of 3
